This is one part of the list.
Each target was assayed with CC1Cc2ccccc2N1C(=O)C1CCCN(C1)C(=O)CCl (mixture of isomers) [TRIM25 ligand 11 (diastereomer mixture)] (assay: probe-labelled cysteine peptide fold change vs DMSO (competition) (log2 fold change); higher = less target engagement (more negative = stronger competition)). Settings: 10 µM; THP-1; incubation time: 4 h.
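Also: competitive chemoproteomic profiling in live THP-1 cells with an iodoacetamide desthiobiotin (IA-DTB) probe, comparing probe-labelled peptide intensities in compound-treated cells against DMSO-treated controls.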

Protein sequences, listed by entry. Tags and fused reporters are not part of them. Lines headed by an entry give the natural chain unless they say otherwise; changes in a name come on top.
UniProt Q00610: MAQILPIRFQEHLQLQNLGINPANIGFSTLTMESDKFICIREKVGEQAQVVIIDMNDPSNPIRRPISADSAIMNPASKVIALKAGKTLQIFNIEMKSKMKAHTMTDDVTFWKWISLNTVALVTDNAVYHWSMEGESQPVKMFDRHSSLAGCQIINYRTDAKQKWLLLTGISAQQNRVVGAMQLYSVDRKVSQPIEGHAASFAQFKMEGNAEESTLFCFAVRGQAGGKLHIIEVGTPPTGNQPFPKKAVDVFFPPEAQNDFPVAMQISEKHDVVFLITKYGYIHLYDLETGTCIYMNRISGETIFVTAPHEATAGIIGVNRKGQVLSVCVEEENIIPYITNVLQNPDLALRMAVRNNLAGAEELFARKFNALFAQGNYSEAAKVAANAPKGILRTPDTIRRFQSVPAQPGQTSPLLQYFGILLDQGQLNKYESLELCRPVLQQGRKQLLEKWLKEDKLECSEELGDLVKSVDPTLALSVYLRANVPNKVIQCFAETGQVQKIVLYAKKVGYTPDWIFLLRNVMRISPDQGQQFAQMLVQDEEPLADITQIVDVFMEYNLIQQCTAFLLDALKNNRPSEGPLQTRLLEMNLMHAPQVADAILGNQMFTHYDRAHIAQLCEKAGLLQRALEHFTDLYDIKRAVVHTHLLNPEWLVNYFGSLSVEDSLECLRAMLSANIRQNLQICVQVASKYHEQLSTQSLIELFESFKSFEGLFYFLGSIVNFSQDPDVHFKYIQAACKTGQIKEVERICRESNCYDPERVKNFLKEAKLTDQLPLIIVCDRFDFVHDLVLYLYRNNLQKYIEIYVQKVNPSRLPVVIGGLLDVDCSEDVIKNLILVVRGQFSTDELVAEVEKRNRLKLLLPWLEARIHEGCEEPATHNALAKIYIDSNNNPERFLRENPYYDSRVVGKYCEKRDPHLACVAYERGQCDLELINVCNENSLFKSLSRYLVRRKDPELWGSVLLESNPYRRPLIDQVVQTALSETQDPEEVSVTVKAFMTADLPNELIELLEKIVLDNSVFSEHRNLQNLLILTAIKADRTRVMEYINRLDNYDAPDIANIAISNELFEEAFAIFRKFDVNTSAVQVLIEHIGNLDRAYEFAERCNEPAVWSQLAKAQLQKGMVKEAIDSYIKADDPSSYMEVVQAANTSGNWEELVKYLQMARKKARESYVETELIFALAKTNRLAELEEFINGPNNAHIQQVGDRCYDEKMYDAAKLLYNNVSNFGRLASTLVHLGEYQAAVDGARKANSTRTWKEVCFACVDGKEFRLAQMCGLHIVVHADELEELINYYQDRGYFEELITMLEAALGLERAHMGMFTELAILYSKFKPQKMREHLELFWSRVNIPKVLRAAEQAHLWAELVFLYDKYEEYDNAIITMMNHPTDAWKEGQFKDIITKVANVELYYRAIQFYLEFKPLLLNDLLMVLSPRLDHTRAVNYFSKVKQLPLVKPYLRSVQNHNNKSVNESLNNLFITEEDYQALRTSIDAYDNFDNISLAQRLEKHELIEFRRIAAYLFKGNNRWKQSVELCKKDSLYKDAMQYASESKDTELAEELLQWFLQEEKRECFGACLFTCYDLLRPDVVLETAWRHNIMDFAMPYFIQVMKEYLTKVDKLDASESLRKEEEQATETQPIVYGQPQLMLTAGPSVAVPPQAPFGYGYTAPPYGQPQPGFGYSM
UniProt Q9UHD1: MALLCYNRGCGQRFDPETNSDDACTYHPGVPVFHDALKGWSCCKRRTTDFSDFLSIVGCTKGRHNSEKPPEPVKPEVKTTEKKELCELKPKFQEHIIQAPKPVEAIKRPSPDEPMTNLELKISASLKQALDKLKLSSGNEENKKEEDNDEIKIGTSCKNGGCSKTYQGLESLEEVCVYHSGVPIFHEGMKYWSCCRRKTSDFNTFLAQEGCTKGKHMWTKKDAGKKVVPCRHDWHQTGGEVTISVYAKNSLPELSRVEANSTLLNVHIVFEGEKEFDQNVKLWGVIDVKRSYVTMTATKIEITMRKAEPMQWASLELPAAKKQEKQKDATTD
UniProt O75122: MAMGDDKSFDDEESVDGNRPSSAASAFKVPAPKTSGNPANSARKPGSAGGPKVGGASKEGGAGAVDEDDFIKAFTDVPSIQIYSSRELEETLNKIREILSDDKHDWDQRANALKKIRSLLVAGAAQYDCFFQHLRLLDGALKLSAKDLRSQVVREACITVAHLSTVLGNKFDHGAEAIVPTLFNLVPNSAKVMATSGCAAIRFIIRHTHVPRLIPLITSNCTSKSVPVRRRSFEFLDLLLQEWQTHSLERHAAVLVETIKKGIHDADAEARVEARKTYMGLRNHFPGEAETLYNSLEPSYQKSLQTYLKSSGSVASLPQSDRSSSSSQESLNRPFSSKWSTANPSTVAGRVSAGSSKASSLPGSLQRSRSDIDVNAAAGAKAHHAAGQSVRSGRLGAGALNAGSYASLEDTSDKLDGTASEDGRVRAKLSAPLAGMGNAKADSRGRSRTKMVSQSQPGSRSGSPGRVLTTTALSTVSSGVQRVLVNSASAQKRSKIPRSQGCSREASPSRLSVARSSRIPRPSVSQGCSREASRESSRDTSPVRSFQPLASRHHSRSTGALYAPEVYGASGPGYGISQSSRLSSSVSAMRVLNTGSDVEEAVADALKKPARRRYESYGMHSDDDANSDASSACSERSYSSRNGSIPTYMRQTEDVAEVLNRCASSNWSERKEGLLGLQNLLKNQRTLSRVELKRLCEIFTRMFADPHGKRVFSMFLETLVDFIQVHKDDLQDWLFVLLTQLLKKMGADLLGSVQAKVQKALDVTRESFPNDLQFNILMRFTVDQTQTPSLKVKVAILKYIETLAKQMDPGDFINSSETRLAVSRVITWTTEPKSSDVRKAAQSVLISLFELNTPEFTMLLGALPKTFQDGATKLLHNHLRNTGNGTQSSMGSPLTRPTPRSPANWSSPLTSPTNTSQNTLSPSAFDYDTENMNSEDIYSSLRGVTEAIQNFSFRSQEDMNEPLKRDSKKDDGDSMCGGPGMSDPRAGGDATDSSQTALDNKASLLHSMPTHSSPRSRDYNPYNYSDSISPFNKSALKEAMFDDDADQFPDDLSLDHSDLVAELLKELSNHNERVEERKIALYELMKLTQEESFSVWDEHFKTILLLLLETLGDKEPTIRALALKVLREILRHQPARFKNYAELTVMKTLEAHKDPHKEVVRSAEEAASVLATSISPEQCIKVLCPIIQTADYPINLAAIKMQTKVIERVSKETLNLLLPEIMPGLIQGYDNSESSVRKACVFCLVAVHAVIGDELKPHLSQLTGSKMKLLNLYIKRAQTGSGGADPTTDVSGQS
UniProt Q14008: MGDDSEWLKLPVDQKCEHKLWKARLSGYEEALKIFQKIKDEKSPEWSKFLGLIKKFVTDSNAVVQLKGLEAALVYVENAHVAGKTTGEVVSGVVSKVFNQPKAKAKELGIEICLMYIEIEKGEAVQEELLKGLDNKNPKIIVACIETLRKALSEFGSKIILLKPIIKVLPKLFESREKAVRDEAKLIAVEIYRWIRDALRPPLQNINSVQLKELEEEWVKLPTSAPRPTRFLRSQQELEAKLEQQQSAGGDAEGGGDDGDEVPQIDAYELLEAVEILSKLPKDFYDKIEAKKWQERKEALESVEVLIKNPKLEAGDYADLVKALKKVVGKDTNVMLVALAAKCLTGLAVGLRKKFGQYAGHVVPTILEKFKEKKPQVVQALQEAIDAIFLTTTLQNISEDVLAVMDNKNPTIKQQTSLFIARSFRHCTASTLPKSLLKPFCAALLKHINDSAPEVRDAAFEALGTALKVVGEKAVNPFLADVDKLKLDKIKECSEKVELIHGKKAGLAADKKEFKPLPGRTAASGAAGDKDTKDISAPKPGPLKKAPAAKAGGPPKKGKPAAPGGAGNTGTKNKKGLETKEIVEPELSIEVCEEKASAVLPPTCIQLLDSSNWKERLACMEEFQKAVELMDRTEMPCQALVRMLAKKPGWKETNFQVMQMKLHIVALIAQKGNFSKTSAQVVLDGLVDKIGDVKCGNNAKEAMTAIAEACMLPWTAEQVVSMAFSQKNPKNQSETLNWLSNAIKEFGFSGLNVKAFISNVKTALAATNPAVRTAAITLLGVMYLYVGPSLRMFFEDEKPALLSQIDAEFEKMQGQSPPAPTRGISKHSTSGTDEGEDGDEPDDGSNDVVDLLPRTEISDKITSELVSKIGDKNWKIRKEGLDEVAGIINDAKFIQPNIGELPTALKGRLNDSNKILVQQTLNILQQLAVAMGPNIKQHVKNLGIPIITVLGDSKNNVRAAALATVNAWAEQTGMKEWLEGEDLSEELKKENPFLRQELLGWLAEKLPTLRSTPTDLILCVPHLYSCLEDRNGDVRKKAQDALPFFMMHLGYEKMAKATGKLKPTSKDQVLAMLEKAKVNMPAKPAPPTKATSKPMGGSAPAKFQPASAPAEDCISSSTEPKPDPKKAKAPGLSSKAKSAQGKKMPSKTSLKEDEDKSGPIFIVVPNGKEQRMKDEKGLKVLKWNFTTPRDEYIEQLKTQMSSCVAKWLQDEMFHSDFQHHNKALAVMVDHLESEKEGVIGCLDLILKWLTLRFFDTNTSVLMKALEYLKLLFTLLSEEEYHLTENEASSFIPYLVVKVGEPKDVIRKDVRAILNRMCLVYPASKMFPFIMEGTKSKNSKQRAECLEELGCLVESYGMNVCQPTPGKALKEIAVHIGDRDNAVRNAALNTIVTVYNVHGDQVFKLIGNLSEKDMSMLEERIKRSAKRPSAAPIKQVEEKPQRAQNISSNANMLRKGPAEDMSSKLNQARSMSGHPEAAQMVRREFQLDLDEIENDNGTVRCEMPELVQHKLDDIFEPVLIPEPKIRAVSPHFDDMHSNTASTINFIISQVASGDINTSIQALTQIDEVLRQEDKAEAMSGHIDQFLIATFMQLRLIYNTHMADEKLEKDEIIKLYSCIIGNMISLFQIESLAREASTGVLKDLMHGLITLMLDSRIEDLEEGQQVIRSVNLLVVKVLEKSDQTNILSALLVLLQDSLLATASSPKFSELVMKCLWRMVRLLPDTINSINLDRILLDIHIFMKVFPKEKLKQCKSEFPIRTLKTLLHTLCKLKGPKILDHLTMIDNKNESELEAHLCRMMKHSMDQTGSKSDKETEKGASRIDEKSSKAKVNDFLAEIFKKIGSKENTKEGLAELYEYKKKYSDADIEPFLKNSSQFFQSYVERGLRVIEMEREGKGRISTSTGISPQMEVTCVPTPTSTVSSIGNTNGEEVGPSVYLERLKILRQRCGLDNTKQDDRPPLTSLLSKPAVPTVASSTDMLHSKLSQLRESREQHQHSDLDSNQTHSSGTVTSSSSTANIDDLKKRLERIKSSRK
UniProt Q13111, whole entry, looked up: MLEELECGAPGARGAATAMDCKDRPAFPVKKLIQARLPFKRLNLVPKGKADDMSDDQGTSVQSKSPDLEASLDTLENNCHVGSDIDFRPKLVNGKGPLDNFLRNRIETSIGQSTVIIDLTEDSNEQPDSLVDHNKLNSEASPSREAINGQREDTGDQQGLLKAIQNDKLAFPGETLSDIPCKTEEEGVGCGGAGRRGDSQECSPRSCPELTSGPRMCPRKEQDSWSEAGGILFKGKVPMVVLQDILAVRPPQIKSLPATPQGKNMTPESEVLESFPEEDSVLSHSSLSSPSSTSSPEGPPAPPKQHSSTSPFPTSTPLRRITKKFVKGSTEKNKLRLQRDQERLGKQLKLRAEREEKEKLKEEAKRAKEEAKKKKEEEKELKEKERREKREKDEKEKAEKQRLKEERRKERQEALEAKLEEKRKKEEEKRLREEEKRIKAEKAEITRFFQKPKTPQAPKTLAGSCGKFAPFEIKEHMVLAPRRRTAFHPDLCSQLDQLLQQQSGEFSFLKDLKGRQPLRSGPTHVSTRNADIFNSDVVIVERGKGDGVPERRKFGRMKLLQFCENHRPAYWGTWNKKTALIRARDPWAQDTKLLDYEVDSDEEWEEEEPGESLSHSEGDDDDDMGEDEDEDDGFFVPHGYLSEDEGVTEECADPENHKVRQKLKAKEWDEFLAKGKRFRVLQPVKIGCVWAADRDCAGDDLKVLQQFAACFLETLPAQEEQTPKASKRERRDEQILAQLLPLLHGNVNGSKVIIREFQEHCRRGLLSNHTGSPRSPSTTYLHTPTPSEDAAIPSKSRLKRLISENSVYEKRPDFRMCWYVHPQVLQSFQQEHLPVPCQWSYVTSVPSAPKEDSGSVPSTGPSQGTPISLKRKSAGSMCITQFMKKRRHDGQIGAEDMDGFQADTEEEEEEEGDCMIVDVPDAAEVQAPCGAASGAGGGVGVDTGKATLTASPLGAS
UniProt P0C7P0: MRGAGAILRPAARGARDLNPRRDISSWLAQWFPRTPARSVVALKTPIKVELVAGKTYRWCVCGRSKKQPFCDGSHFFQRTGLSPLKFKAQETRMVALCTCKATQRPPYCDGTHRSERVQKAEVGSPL
UniProt Q9BSY4: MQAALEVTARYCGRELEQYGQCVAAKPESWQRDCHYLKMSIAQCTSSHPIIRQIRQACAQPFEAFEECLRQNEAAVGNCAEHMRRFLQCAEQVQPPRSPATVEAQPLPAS

Target | probe-labelled cysteine peptide fold change
CLTC_Q00610_491_VIQCFAETGQVQK (UniProt Q00610) | -0.0337
CHORDC1_Q9UHD1_59_TTDFSDFLSIVGCTK (UniProt Q9UHD1) | -0.0281
CLASP1_Q7Z460_1212_ECDIVSR (UniProt Q7Z460) | -0.0418
CHD8_Q9HCK8_680_NYSYLHCEWATISQLEK (UniProt Q9HCK8) | 0.135
CLASP2_O75122_976_KDDGDSMCGGPGMSDPR (UniProt O75122) | -0.174
CKAP5_Q14008_1026_STPTDLILCVPHLYSCLEDR (UniProt Q14008) | -0.0301
CIT_O14578_1655_ALCLVDVKK (UniProt O14578) | -0.113
CHD7_Q9P2D1_1101_CVVIDEAHR (UniProt Q9P2D1) | 0.0726
CHAF1A_Q13111_465_TLAGSCGK (UniProt Q13111) | -0.183
CHORDC1_Q9UHD1_176_TYQGLESLEEVCVYHSGVPIFHEGMK (UniProt Q9UHD1) | -0.00431
CHORDC1_Q9UHD1_24_FDPETNSDDACTYHPGVPVFHDALK (UniProt Q9UHD1) | -0.106
CISD3_P0C7P0_98_MVALCTCK (UniProt P0C7P0) | 0.0723
CHD2_O14647_500_DYQLEGLNWLAHSWCK (UniProt O14647) | 0.0194
CHORDC1_Q9UHD1_59_RTTDFSDFLSIVGCTK (UniProt Q9UHD1) | -0.222
CHD1_O14646_376_NASPEDVEYYNCQQELTDDLHK (UniProt O14646) | -0.0832
CHI3L1_P36222_300_EAGTLAYYEICDFLR (UniProt P36222) | 0.0418
CIP2A_Q8TCG1_358_WLSQPLDGSENCSVLALELFK (UniProt Q8TCG1) | 0.456
CHCHD5_Q9BSY4_22_ELEQYGQCVAAKPESWQR (UniProt Q9BSY4) | 0.047
CLASP2_O75122_502_SQGCSR (UniProt O75122) | -0.154
CHTF18_Q8WVB6_373_VALLCGPPGLGK (UniProt Q8WVB6) | 0.0484
CGGBP1_Q9UFW8_43_LFCTSCNVVLNHVR (UniProt Q9UFW8) | 0.0229
CIAO1_O76071_34_CWFLAWNPAGTLLASCGGDRR (UniProt O76071) | -0.439

An excerpt of these results, as a markdown table.

| Target | probe-labelled cysteine peptide fold change |
| --- | --- |
| CLASP2_O75122_976_KDDGDSMCGGPGMSDPR (UniProt O75122) | -0.174 |
| CKAP5_Q14008_1026_STPTDLILCVPHLYSCLEDR (UniProt Q14008) | -0.0301 |

From the supplement of paper PMC12067093, “Discovery and optimisation of a covalent ligand for TRIM25 and its application to targeted protein ubiquitination” (Chemical Science, 2025)
